This assay deals with Fem1b (co-IP assay) (UniProt Q9Z2G0). The assay can be described thus: co-IP; co-IP assay of Fem1b and Gli1 (Appendix Fig. S6D); cells, bait and antibodies not shown.

By UniProt entry, the sequences of proteins in these tests, tags left out.
UniProt Q9Z2G0: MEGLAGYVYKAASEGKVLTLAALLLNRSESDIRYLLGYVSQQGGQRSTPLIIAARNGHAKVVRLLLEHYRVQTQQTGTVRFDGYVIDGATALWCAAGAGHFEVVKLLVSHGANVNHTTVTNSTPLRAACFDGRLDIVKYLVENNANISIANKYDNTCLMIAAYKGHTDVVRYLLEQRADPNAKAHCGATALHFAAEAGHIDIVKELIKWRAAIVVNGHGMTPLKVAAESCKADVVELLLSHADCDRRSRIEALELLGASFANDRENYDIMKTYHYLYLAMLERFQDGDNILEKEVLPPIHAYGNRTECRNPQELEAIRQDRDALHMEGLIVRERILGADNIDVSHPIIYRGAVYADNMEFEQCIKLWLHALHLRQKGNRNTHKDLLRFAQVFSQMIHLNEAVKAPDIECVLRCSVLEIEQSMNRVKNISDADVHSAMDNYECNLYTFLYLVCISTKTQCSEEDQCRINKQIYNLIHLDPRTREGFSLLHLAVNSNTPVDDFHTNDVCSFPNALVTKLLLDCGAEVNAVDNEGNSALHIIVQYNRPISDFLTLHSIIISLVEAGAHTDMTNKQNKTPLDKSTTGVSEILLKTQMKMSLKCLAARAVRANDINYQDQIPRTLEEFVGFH
UniProt P47806: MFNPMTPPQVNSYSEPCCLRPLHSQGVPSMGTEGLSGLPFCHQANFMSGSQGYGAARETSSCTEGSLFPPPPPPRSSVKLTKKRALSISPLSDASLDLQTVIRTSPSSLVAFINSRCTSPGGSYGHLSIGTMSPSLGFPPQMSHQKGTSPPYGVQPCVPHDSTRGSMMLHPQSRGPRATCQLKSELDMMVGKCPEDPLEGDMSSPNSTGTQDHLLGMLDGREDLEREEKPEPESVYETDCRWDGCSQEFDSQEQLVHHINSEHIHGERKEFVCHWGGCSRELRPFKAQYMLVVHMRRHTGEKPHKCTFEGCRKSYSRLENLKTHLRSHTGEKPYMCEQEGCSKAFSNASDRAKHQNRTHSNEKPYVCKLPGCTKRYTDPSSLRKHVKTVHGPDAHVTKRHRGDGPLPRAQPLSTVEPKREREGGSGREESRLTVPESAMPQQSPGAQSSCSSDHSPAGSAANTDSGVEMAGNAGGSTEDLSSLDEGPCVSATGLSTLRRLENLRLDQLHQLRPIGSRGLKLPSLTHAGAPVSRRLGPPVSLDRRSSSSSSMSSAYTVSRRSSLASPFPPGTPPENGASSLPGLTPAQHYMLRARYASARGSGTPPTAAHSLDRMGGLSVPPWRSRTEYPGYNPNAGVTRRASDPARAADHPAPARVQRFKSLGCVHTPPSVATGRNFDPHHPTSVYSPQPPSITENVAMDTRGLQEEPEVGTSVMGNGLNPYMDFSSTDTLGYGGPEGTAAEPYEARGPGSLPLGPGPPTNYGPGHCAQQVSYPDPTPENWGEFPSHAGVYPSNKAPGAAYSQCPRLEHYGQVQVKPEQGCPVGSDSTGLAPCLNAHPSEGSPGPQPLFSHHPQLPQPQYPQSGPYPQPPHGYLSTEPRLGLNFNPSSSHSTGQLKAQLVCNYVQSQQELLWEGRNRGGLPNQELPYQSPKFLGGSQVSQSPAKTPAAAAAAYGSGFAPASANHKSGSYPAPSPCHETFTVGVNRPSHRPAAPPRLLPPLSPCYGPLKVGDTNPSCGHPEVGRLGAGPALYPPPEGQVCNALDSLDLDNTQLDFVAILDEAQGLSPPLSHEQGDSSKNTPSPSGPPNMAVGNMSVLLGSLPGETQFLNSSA

These are yes or no findings as the source states them, for the method shown. Binding seen in cells or lysates may run through a third protein. Some entries that bind do so weakly or less than the wild type.

For the substance “Gli1 (co-IP assay) (from UniProt P47806 1-1111)”, the binding entry was “binds”.
